From paper PMC12629859
No constants are given. Whether binding was seen depends on the method and setting. Binding seen in cells or lysates may run through a third protein. Binding can be weak; no strength is given.

Chains of the proteins cited; added tags and fusions are not shown. Lines headed by an entry give the natural chain unless they say otherwise; changes in a name come on top. Residues count along the entry.
UniProt P07711: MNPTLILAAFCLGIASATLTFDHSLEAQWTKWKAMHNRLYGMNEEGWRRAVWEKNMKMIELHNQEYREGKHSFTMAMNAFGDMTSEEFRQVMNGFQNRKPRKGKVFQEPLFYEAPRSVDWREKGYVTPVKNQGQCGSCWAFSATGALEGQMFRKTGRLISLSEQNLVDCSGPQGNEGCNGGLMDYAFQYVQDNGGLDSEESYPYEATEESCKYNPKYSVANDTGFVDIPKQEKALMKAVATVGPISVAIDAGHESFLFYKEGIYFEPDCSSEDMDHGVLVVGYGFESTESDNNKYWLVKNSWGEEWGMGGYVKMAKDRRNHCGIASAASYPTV
USP20-UCH domain (Q9Y2K6, residues 145-647): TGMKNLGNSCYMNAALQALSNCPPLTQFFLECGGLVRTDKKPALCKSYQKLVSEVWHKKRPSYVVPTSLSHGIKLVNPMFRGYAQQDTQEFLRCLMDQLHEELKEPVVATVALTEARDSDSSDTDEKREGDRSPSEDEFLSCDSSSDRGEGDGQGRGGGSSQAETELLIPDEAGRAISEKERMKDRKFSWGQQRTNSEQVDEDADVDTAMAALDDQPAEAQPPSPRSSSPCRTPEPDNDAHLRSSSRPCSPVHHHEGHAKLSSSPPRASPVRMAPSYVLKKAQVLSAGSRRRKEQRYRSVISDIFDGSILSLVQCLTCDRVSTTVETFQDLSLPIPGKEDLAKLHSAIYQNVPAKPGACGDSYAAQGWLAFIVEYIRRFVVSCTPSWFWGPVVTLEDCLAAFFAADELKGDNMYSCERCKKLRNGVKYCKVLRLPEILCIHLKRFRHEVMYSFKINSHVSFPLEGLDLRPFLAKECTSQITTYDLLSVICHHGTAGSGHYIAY
UniProt Q9UNE7: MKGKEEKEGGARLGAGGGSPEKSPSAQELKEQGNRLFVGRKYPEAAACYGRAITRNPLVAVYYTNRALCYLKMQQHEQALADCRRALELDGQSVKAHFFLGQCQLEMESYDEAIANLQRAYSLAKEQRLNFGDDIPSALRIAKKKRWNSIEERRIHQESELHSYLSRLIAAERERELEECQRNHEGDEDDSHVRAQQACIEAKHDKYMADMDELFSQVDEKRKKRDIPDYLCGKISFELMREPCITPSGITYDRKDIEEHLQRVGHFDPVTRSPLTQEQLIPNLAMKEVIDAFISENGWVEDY

Columns and labels:
[1] = target: Cathepsin L (CTSL), endogenous (human (endogenous in FaDu and HN8)) (UniProt P07711); assay: co-IP; endogenous proteins in FaDu and HN8 lysates; IP lysis buffer, overnight at 4°C with the indicated antibodies, Western blot
[2] = target: Cathepsin L (CTSL), endogenous (human (endogenous in FaDu and HN8)) (UniProt P07711); assay: co-IP; total lysates of HN8 cells with or without USP20 knockdown, or FaDu cells with or without USP20 overexpression; IP with anti-CTSL or anti-STUB1; cells treated with MG132
[3] = target: USP20-UCH domain (amino acids 145-647) (UniProt Q9Y2K6); assay: co-IP; HEK293T cells co-transfected with Flag-CTSL and HA-tagged USP14, USP12 (48 hours) or USP20 constructs; for the USP20 constructs IP with anti-HA and blot with anti-Flag
[4] = target: Cathepsin L (CTSL), endogenous (human (endogenous in FaDu and HN8)) (UniProt P07711); assay: co-IP; HN8 and FaDu cells transfected with Flag-STUB1 and HA-USP20; endogenous CTSL

## Ubiquitin-specific protease 20 (USP20), endogenous (from UniProt Q9Y2K6 1-914) (enzyme)
[1]
  binding: binds

## STUB1 (carboxyl terminus of Hsc70-interacting protein), endogenous (from UniProt Q9UNE7 1-303) (enzyme)
[2]
  binding: binds

## Full-length Flag-CTSL (HEK293T cells) (from UniProt P07711)
[3]
  binding: binds

## Flag-STUB1 (HN8 and FaDu cells) (from UniProt Q9UNE7 1-303) (enzyme)
[4]
  binding: binds
